Measurements reported in PubChem BioAssay AID652243 (Drosophila RNAi Screening Center, 2013)

- Test: 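Fly genes required for human androgen receptor driven transcription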 (primary screen)
- Cells: Drosophila S2R+ cells
- Reagent: long dsRNA against Drosophila genes
- Time to read-out: 72 h (48 h, then 24 h hormone)
- Conditions: synthetic androgen R1881 at 10 nM for 24 h
- Read-out: 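Firefly light from an androgen-responsive reporter and Renilla control light per well, raw and unnormalised, for each of two replicates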
- Direction: firefly reporter light: higher = more light from androgen-responsive reporter; Renilla control light: higher = more constitutive control signal (cell number, transfection)
- Active means: 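Across duplicate plates, a knock-down whose log firefly/Renilla ratio shifted a set fold down or up from the GFP/LacZ control mean was a hit; the downward cut appears as both 1.5 and 3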
- Meaning of the calls: active = hit: reporter lowered or raised; inactive = no hit
The screen tested about 24,000 reagents; shown is a random part of those with a known target gene and a result. Of all reagents, 246 (1%) were called active. 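Plates not normalised; calls are printed but the firefly/Renilla ratio behind them is not deposited; fold cut for lowering reported inconsistently.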 Raw values are not corrected between plates. Not stated in the record: the amount of reagent.

| Gene | amplicon | firefly reporter light, replicate 1 | firefly reporter light, replicate 2 | Renilla control light, replicate 1 | Renilla control light, replicate 2 | Call |
| --- | --- | --- | --- | --- | --- | --- |
| CG32829 (GeneID 318235) | DRSC00961 | 4.30e5 | 3.69e5 | 3.04e6 | 2.70e6 | inactive |
| CG32829 (GeneID 318235) | DRSC22805 | 2.83e5 | 5.09e5 | 6.98e5 | 1.38e6 | inactive |
| pico (GeneID 33003) | DRSC19430 | 1.30e5 | 57741 | 5.67e5 | 2.16e5 | inactive |
| CG1288 (GeneID 40865) | DRSC12538 | 54237 | 93196 | 1.26e6 | 1.36e6 | inactive |
| CG1288 (GeneID 40865) | DRSC25396 | 7.81e5 | 7.83e5 | 1.09e6 | 1.17e6 | inactive |
| jbug (GeneID 43997) | DRSC03952 | 2.84e5 | 3.63e5 | 4.85e5 | 5.55e5 | inactive |
| jbug (GeneID 43997) | DRSC04114 | 5.74e5 | 5.30e5 | 9.84e5 | 1.12e6 | inactive |
| jbug (GeneID 43997) | DRSC04167 | 3.65e5 | 3.62e5 | 2.31e6 | 2.14e6 | inactive |
| jbug (GeneID 43997) | DRSC04388 | 2.10e5 | 1.90e5 | 1.63e6 | 1.18e6 | inactive |
| jbug (GeneID 43997) | DRSC29978 | 4.55e5 | 3.46e5 | 1.26e6 | 1.26e6 | inactive |
| CR11235 (GeneID 10178883) | DRSC20480 | 4.19e5 | 1.57e5 | 1.01e6 | 5.63e5 | inactive |
| CR11235 (GeneID 10178883) | DRSC28870 | 8.24e5 | 7.43e5 | 1.26e6 | 1.34e6 | inactive |
| S (GeneID 33281) | DRSC24973 | 2.03e5 | 1.23e5 | 7.62e5 | 3.94e5 | inactive |

Part of the list above in another layout.
jbug (GeneID 43997) [DRSC04167]: firefly reporter light, replicate 1 = 3.65e5; firefly reporter light, replicate 2 = 3.62e5; Renilla control light, replicate 1 = 2.31e6; Renilla control light, replicate 2 = 2.14e6; Call = inactive
jbug (GeneID 43997) [DRSC04388]: firefly reporter light, replicate 1 = 2.10e5; firefly reporter light, replicate 2 = 1.90e5; Renilla control light, replicate 1 = 1.63e6; Renilla control light, replicate 2 = 1.18e6; Call = inactive

Continued:
| Gene | amplicon | firefly reporter light, replicate 1 | firefly reporter light, replicate 2 | Renilla control light, replicate 1 | Renilla control light, replicate 2 | Call |
| --- | --- | --- | --- | --- | --- | --- |
| CG15109 (GeneID 37195) | DRSC06536 | 1.05e5 | 1.50e5 | 1.54e6 | 1.82e6 | inactive |
| CG15109 (GeneID 37195) | DRSC26040 | 2.97e5 | 2.58e5 | 8.32e5 | 6.48e5 | inactive |
| CG32284 (GeneID 317956) | DRSC08025 | 1.42e5 | 1.84e5 | 2.23e5 | 2.46e5 | inactive |
| PIP4K (GeneID 3885565) | DRSC17213 | 3.28e5 | 3.25e5 | 4.42e6 | 3.48e6 | inactive |
| PIP4K (GeneID 3885565) | DRSC39262 | – | – | – | – | inactive |
| PIP4K (GeneID 3885565) | DRSC39291 | – | – | – | – | inactive |
| SdhC (GeneID 41340) | DRSC16088 | 1.16e5 | 1.55e5 | 1.73e6 | 2.14e6 | inactive |
| CG42262 (retired record) (GeneID 50410) | DRSC17628 | 7.76e5 | 1.05e6 | 1.16e6 | 1.55e6 | inactive |
| CG42262 (retired record) (GeneID 50410) | DRSC17974 | 3.72e5 | 4.07e5 | 2.88e6 | 2.82e6 | inactive |
| Sou (GeneID 37382) | DRSC04356 | 1.34e5 | 2.74e5 | 1.44e6 | 1.99e6 | inactive |
| CG12910 (GeneID 36082) | DRSC06225 | 2.00e6 | 1.11e6 | 1.77e6 | 1.20e6 | inactive |
| l(1)G0004 (GeneID 33033) | DRSC20486 | 1.16e5 | 48818 | 6.71e5 | 4.64e5 | inactive |
| CG13081 (GeneID 35245) | DRSC02185 | 1.75e5 | 1.42e5 | 1.48e6 | 1.39e6 | inactive |
| Smyd4-1 (GeneID 35985) | DRSC06785 | 1.28e6 | 9.74e5 | 2.32e6 | 1.82e6 | inactive |
| Smyd4-1 (GeneID 35985) | DRSC27142 | 2.18e5 | 1.81e5 | 6.20e5 | 7.49e5 | inactive |
| CG2260 (GeneID 31732) | DRSC18223 | 1.16e5 | 1.05e5 | 8.44e5 | 5.39e5 | inactive |
| CG2260 (GeneID 31732) | DRSC28536 | 2.17e5 | 2.95e5 | 4.76e5 | 1.27e6 | inactive |
| nito (GeneID 35756) | DRSC05943 | 6.90e5 | 6.24e5 | 1.47e6 | 1.32e6 | inactive |
| CG11975 (GeneID 41074) | DRSC14452 | 63774 | 60695 | 3.46e5 | 3.24e5 | inactive |
| CG8924 (GeneID 32557) | DRSC23027 | 7.71e5 | 8.56e5 | 1.66e6 | 1.67e6 | inactive |
| Ir67c (GeneID 317838) | DRSC22097 | 7.21e5 | 6.64e5 | 2.21e6 | 1.89e6 | inactive |
| Mo25 (GeneID 39858) | DRSC11224 | 14295 | 10104 | 1.38e5 | 1.42e5 | inactive |
| CG6873 (GeneID 32861) | DRSC20014 | 2.35e5 | 1.07e5 | 3.24e5 | 1.27e5 | inactive |
| C3G (GeneID 31618) | DRSC17929 | 3.84e5 | 3.68e5 | 3.96e6 | 3.03e6 | inactive |
| C3G (GeneID 31618) | DRSC23077 | 4.69e5 | 4.74e5 | 9.18e5 | 1.06e6 | inactive |
| C3G (GeneID 31618) | DRSC29081 | 5.31e5 | 6.85e5 | 1.43e6 | 1.13e6 | inactive |
| Arpc5 (GeneID 33444) | DRSC00730 | 1.13e5 | 99114 | 6.88e5 | 6.30e5 | inactive |
